In paper PMC12362587, “Untargeted Diversity-Oriented Synthesis for the Discovery of New Antitumor Agents: An Integrated Approach of Inverse Virtual Screening, Bioinformatics, and Omics for Target Deconvolution” (Journal of Medicinal Chemistry, 2025):

How the values were obtained:
A375 cells [1] = test: Untargeted lipidomics; format: cell-based, human; settings: A375, 2.5 μM, 72 h, vs ctrl
A375 cells [2] = test: Untargeted metabolomics; format: cell-based, human; settings: A375, 2.5 μM, 72 h; p-value < 0.05 and FC > ±2

| Structure (SMILES) | number of differentially modulated lipids (A375 cells [1]) | number of differentially abundant metabolites (A375 cells [2]) |
| --- | --- | --- |
| CC(C)C[C@@H](C(=O)OCc1ccccc1)N1Cc2ccccc2NC1=O [Compound 63, Benzyl (S)-4-Methyl-2-(2-oxo-1,4-dihydroquinazolin-3(2H)-yl)pentanoate] | 74 | 23 |
| CC(C)C[C@H]1C(=O)N(Cc2ccc(C(F)(F)F)cc2)c2ccccc2C(=O)N1Cc1ccc(C(F)(F)F)cc1 [Compound 31, (S)-3-Isobutyl-1,4-bis(4-(trifluoromethyl)benzyl)-3,4-dihydro-1H-benzo[e][1,4]diazepine-2,5-dione] | 49 | 47 |
